The data set has as its system cotton leafworm, S. littoralis. Briefly: Insecticidal bioassay screening (castor leaf dip), second and fourth instar larvae, laboratory strain. It is filed as in vivo. Conditions: after 72 hrs of treatment. The method, then: Five concentrations (200, 100, 50, 25, 12.5 ppm) were designed for this synthetic compound and the reference Diflubenzuron compound as the dynamic ingredients based on mg/L via diluting the commercial formulation.
In this experiment, castor leaves are immersed in each of the previously prepared concentrations of the components for 10 seconds and then left to dry for 60 minutes. Larvae of the second and fourth instars of each checked strain are prepared with treated leaves in gauze-covered glass containers for 72 hrs. An untreated control is made in which leaves are dipped in triton x-100 and distilled water only. Then the preserved leaves were removed & fresh, untreated leaves were provided for 72 hours. Three replicates (10 larvae each) were checked for each concentration. Daily inspection was carried out for all treatments and mortality percentages were recorded 3 days (72 hours) after treatment. The average mortality percentage was corrected employing Abbott's formula. The corrected mortality rate for each of the previously synthesized compounds is statistically calculated according to Finney (1970). Through this rate, the corresponding concentration test lines (LDP lines) are assessed.

The structures appear in SMILES notation.

In the case of `O=C(NC(=S)Nc1ncccn1)c1ccccc1` [Compound 3, N-(Pyrimidin-2-ylcarbamothioyl) benzamide], the Slope is, setting by setting: (2nd instar larvae) 1.018 ± 0.36; (4th instar larvae) 1.17 ± 0.35.
For `O=C(NC(=O)c1c(F)cccc1F)Nc1ccc(Cl)cc1` [Diflubenzuron, reference compound] the same measures were 1.20 ± 0.46 and 1.2 ± 0.36.

(Values after patent US12041933B1, “N-(pyrimidin-2-ylcarbamothioyl) benzamide as an eco-friendly insecticidal agent against Spodoptera littoralis (BOISD.)” (KING FAISAL UNIVERSITY, priority 2023, dated 2024).)
